Source: PubChem BioAssay AID256 (DTP/NCI, 2004)
The list does not hold the whole screen: it gathers tests that were run many times, whatever their T/C, doses with no T/C, and many T/C values between a quarter and a half above the control. Further doses and runs are listed elsewhere. T/C: endpoint of the treated group in % of that of the vehicle group. Some entries give survivors of the animals treated and no T/C: the source files T/C as zero there, which appears to mark a toxic dose or a test without result, not a measured value. Some survivor counts are full or nearly so, which does not show that the dose was tolerated: survival well below the control is almost never listed, so the zero probably covers shortened survival too. Counts of survivors are from the toxicity check (mostly the fifth day) where no day follows; animals may have died later. Schedules are NCI's codes, taken here to give the interval after Q, in days (D) or hours (H), and the number of doses after X. Some entries were tested several times; their values stand side by side, smallest first. For survival time, this PubChem deposit counts one and a half times the control or more as active, and values a quarter to a half above the control carry no call in these data; other NCI protocols may use other cut-offs. Some T/C values carry the count of animals alive at the toxicity check (mostly the fifth day); where none is given, no animal had died by that day.

Test system: CD2F1 mice, L1210 leukemia ip, survival T/C
Test: NCI In Vivo Anticancer Drug Screen. Data for tumor model L1210 Leukemia (intraperitoneal) in CD2F1 (CDF1) mice
Details: higher T/C = longer survival
How it was run: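 Compound-dosed mice with transplantable tumor versus matched vehicle controls; endpoint ratio T/C reported.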

[1] = T/C endpoint: mean survival time, dose: 50.0 mg/kg/injection, schedule: Q01DX009 (ip), vehicle: Klucel (hydroxypropylcellulose) (HPC)
[2] = T/C endpoint: mean survival time, dose: 400.0 mg/kg/injection, schedule: Q01DX009 (ip), vehicle: Klucel (hydroxypropylcellulose) (HPC)
[3] = T/C endpoint: mean survival time, dose: 400.0 mg/kg/injection, schedule: Q01DX009 (ip), vehicle: saline with Tween-80
[4] = T/C endpoint: mean survival time, dose: 100.0 mg/kg/injection, schedule: Q04DX003 (ip), vehicle: saline with Tween-80
[5] = T/C endpoint: mean survival time, dose: 200.0 mg/kg/injection, schedule: Q04DX003 (ip), vehicle: saline with Tween-80
[6] = T/C endpoint: mean survival time, dose: 400.0 mg/kg/injection, schedule: Q04DX003 (ip), vehicle: saline with Tween-80
[7] = T/C endpoint: mean survival time, dose: 150.0 mg/kg/injection, schedule: Q01DX001 (ip), vehicle: saline
[8] = T/C endpoint: mean survival time, dose: 300.0 mg/kg/injection, schedule: Q01DX001 (ip), vehicle: saline
[9] = T/C endpoint: mean survival time, dose: 400.0 mg/kg/injection, schedule: Q01DX001 (ip), vehicle: saline with Tween-80
[10] = T/C endpoint: mean survival time, dose: 400.0 mg/kg/injection, schedule: Q04DX002 (ip), vehicle: saline with Tween-80
[11] = T/C endpoint: mean survival time, dose: 200.0 mg/kg/injection, schedule: Q01DX001 (ip), vehicle: saline with Tween-80

## CCC1(O)CC2CN(CCc3c([nH]c4ccccc34)C(C(=O)OC)(c3cc4c(cc3OC)N(C)C3C(O)(C(N)=O)C(O)C5(CC)C=CCN6CCC43C65)C2)C1 (centres undefined) (tested in a mixture with another compound)
T/C endpoint: mean survival time, dose: 0.6 mg/kg/injection, schedule: Q01DX009 (ip), vehicle: water
  T/C: 130 % of control [5 of 6 alive]
T/C endpoint: mean survival time, dose: 0.65 mg/kg/injection, schedule: Q04DX003 (ip), vehicle: water
  T/C: 128 % of control
T/C endpoint: mean survival time, dose: 0.86 mg/kg/injection, schedule: Q04DX003 (ip), vehicle: water
  T/C: 125 % of control [5 of 6 alive]
T/C endpoint: mean survival time, dose: 1.0 mg/kg/injection, schedule: Q01DX009 (ip), vehicle: water
  survivor count: 3 of 6
T/C endpoint: mean survival time, dose: 1.08 mg/kg/injection, schedule: Q04DX003 (ip), vehicle: water
  T/C: 140 % of control
T/C endpoint: mean survival time, dose: 2.4 mg/kg/injection, schedule: Q04DX003 (ip), vehicle: water
  T/C: 127 % of control [5 of 6 alive]
T/C endpoint: mean survival time, dose: 3.0 mg/kg/injection, schedule: Q04DX003 (ip), vehicle: water
  T/C: 134 % of control

## Cc1c(O)c2c(c(O)c1Cc1ccc(C#N)cc1)C(=O)c1ccccc1C2=O
[1]
  survivor count: 6 of 6
[2]
  survivor count: 0 of 6

## C/C=C(\C)C(=O)OC1C(C)C2(O)C(C=C(CO)CC3(O)C(=O)C(C)=CC32)C2C(C)(C)C12OC(=O)CCCCCCCCC (centres undefined)
T/C endpoint: mean survival time, dose: 500.0 micrograms/kg/injection, schedule: Q01DX009 (ip), vehicle: saline + alcohol
  survivor count: 1 of 6

## NC(=S)N/N=C/C(=O)c1ccc(Br)cc1
T/C endpoint: mean survival time, dose: 400.0 mg/kg/injection, schedule: Q01DX001 (ip), vehicle: saline
  survivor count: 2 of 6

## CCCCOCN(COCCCC)C12CC3CC(CC(C3)C1)C2
[3]
  survivor count: 0 of 6 and 2 of 10

## Cc1cc(N=CN(C)C)c2ccccc2n1
T/C endpoint: mean survival time, dose: 50.0 mg/kg/injection, schedule: Q01DX009 (ip), vehicle: other
  survivor count: 1 of 6
T/C endpoint: mean survival time, dose: 100.0 mg/kg/injection, schedule: Q01DX009 (ip), vehicle: other
  survivor count: 0 of 6

## Cc1cc(N(CCOS(C)(=O)=O)CCOS(C)(=O)=O)ccc1N=O
T/C endpoint: mean survival time, dose: 0.5 mg/kg/injection, schedule: Q01DX010 (ip), vehicle: saline
  T/C: 125 % of control
T/C endpoint: mean survival time, dose: 2.0 mg/kg/injection, schedule: Q01DX010 (ip), vehicle: saline
  survivor count: 4 of 6
T/C endpoint: mean survival time, dose: 4.0 mg/kg/injection, schedule: Q01DX010 (ip), vehicle: saline
  survivor count: 2 of 6

## CN(C)C1CCCCC1[N+](C)(C)C (centres undefined)
[4]
  survivor count: 0 of 6
[5]
  survivor count: 0 of 6
[6]
  survivor count: 0 of 6

## CC(=O)NNC(=O)c1ccccc1
T/C endpoint: mean survival time, dose: 300.0 mg/kg/injection, schedule: Q01DX009 (ip), vehicle: other
  survivor count: 6 of 6

## CN(C)N=Nc1ccccc1C(N)=O
T/C endpoint: mean survival time, dose: 67.0 mg/kg/injection, schedule: Q01DX009 (ip), vehicle: Klucel (hydroxypropylcellulose) (HPC)
  T/C: 140 % of control
T/C endpoint: mean survival time, dose: 225.0 mg/kg/injection, schedule: Q01DX009 (ip), vehicle: Klucel (hydroxypropylcellulose) (HPC)
  survivor count: 0 of 6
T/C endpoint: mean survival time, dose: 300.0 mg/kg/injection, schedule: Q01DX009 (ip), vehicle: Klucel (hydroxypropylcellulose) (HPC)
  survivor count: 0 of 6 and 2 of 6

## CN(CCCCl)CCCCl
[7]
  survivor count: 1 of 6
[8]
  survivor count: 0 of 6

## CN1COc2cc3c(cc2C1)OCN(C)C3
[9]
  survivor count: 0 of 3

## CC(=O)c1ccc(C(=O)CC(O)(C(F)(F)F)C(F)(F)F)cc1
T/C endpoint: mean survival time, dose: 400.0 mg/kg/injection, schedule: Q04DX003 (ip), vehicle: other
  survivor count: 3 of 6

## CCCCCCCCN1C(=O)CCC1=O
[10]
  survivor count: 0 of 3

## O=C1NC(=O)C2C3C=CC(C3)C12 (centres undefined)
T/C endpoint: mean survival time, dose: 100.0 mg/kg/injection, schedule: Q04DX002 (ip), vehicle: saline with Tween-80
  survivor count: 1 of 3
T/C endpoint: mean survival time, dose: 200.0 mg/kg/injection, schedule: Q04DX002 (ip), vehicle: saline with Tween-80
  survivor count: 1 of 3
[10]
  survivor count: 0 of 3

## c1ccc([As]2[As](c3ccccc3)[As](c3ccccc3)[As]2c2ccccc2)cc1 (centres undefined)
T/C endpoint: mean survival time, dose: 75.0 mg/kg/injection, schedule: Q01DX001 (ip), vehicle: saline
  survivor count: 3 of 6
[7]
  survivor count: 2 of 6
[8]
  survivor count: 0 of 6

## NC(=S)N/N=C/c1cc(-c2cccc(N)c2)ccn1
T/C endpoint: mean survival time, dose: 50.0 mg/kg/injection, schedule: Q01DX009 (ip), vehicle: saline with Tween-80
  T/C: 126 % of control
T/C endpoint: mean survival time, dose: 150.0 mg/kg/injection, schedule: Q01DX009 (ip), vehicle: saline with Tween-80
  survivor count: 0 of 6 and 1 of 6

## CCOC(=O)Cc1cnc(SC)nc1Nc1ccc(F)cc1
[9]
  survivor count: 1 of 6

## Cc1ccc(C2=CSC3=NCCN23)cc1Cl
T/C endpoint: median survival time, dose: 100.0 mg/kg/injection, schedule: Q01DX005 (ip), vehicle: saline
  survivor count: 0 of 6

## COC(=O)c1cc(C)ccc1O
[3]
  survivor count: 0 of 6

## CC(C)(C)CC(C)(C)c1ccc(OCCOc2ccc(C(=O)Nc3ccc([N+](=O)[O-])cc3)cc2)cc1
[2]
  survivor count: 4 of 6

## O=[N+]([O-])c1ccc2c(c1)-c1[nH]c3ccccc3c1CS2
[2]
  survivor count: 2 of 6

## CCOC(=O)Nc1cc2c(c(N)n1)N=C(c1ccc(Cl)cc1)CN2
T/C endpoint: mean survival time, dose: 12.5 mg/kg/injection, schedule: Q01DX009 (ip), vehicle: Klucel (hydroxypropylcellulose) (HPC)
  T/C: 125 % of control
[1]
  survivor count: 4 of 5

## CC(=O)C(C)OS(C)(=O)=O (centres undefined)
[6]
  survivor count: 6 of 6

## COc1ccc(C=NCCN=Cc2ccc(OC)cc2OC)c(OC)c1
[4]
  survivor count: 6 of 6
[5]
  survivor count: 6 of 6
[6]
  survivor count: 6 of 6

## CCOc1ccc(C(/C(Cl)=N/O)C(Cl)(Cl)Cl)cc1 (centres undefined)
T/C endpoint: mean survival time, dose: 75.0 mg/kg/injection, schedule: Q01DX009 (ip), vehicle: saline with Tween-80
  survivor count: 6 of 6
T/C endpoint: mean survival time, dose: 115.0 mg/kg/injection, schedule: Q01DX009 (ip), vehicle: saline with Tween-80
  survivor count: 0 of 6
T/C endpoint: mean survival time, dose: 170.0 mg/kg/injection, schedule: Q01DX009 (ip), vehicle: saline with Tween-80
  survivor count: 0 of 6

## OCC1OC(n2cnc3c(NO)nc(NO)nc32)C(O)C1O (centres undefined)
T/C endpoint: median survival time, dose: 12.0 mg/kg/injection, schedule: Q01DX009 (ip), vehicle: saline
  T/C: 130 % of control
T/C endpoint: median survival time, dose: 24.0 mg/kg/injection, schedule: Q01DX009 (ip), vehicle: saline
  T/C: 146 % of control

## Nc1nc(N)c(N)c(NC(c2ccccc2)c2ccccc2)n1
T/C endpoint: mean survival time, dose: 150.0 mg/kg/injection, schedule: Q01DX001 (ip), vehicle: other
  survivor count: 0 of 6
T/C endpoint: mean survival time, dose: 300.0 mg/kg/injection, schedule: Q01DX001 (ip), vehicle: other
  survivor count: 0 of 6

## O=C(O)/C=N/NS(=O)(=O)c1ccccc1
T/C endpoint: mean survival time, dose: 200.0 mg/kg/injection, schedule: Q01DX009 (ip), vehicle: water
  survivor count: 5 of 6

## O=C(Nc1ccccc1CCl)Nc1ccccc1CCl
T/C endpoint: median survival time, dose: 800.0 mg/kg/injection, schedule: Q01DX005 (ip), vehicle: saline with Tween-80
  survivor count: 3 of 5

## CSc1ccc(N=C/C=C/c2ccccc2)cc1
[5]
  survivor count: 6 of 6

## CC1(C)N=C(N)N=C(N)N1c1ccc(OCCCCNC(=O)Nc2cccc(S(=O)(=O)F)c2)c(Cl)c1
[11]
  survivor count: 0 of 6
[9]
  survivor count: 0 of 6

## Nc1nc(-c2ccc([N+](=O)[O-])cc2)c([N+](=O)[O-])c(=O)[nH]1
T/C endpoint: mean survival time, dose: 25.0 mg/kg/injection, schedule: Q01DX001 (ip), vehicle: saline with Tween-80
  survivor count: 3 of 6
T/C endpoint: mean survival time, dose: 50.0 mg/kg/injection, schedule: Q01DX001 (ip), vehicle: saline with Tween-80
  survivor count: 3 of 6
T/C endpoint: mean survival time, dose: 100.0 mg/kg/injection, schedule: Q01DX001 (ip), vehicle: saline with Tween-80
  survivor count: 3 of 6
[11]
  survivor count: 2 of 6
[9]
  survivor count: 3 of 6

## CCCCCC(=O)/C=C/Sc1n[nH]c(=O)[nH]c1=O
T/C endpoint: mean survival time, dose: 100.0 mg/kg/injection, schedule: Q01DX005 (ip), vehicle: distilled water + Tween-80
  survivor count: 0 of 6
T/C endpoint: mean survival time, dose: 200.0 mg/kg/injection, schedule: Q01DX005 (ip), vehicle: distilled water + Tween-80
  survivor count: 0 of 6

## O=C(OC/C=C/CCl)c1ccc([N+](=O)[O-])cc1
T/C endpoint: mean survival time, dose: 200.0 mg/kg/injection, schedule: Q01DX009 (ip), vehicle: saline with Tween-80
  survivor count: 3 of 6
[3]
  survivor count: 3 of 6
